Experimental data taken from PMC3046960.
These are yes or no findings as the source states them, for the method shown. Binding seen in cells or lysates may run through a third protein. Some binding calls cover weakened binding; strength is not graded here.

By UniProt entry, the sequences of proteins in these tests, tags left out. Where a name states a change or a piece, a line headed by the entry shows the natural chain unless it says otherwise.
UniProt D4A5I9: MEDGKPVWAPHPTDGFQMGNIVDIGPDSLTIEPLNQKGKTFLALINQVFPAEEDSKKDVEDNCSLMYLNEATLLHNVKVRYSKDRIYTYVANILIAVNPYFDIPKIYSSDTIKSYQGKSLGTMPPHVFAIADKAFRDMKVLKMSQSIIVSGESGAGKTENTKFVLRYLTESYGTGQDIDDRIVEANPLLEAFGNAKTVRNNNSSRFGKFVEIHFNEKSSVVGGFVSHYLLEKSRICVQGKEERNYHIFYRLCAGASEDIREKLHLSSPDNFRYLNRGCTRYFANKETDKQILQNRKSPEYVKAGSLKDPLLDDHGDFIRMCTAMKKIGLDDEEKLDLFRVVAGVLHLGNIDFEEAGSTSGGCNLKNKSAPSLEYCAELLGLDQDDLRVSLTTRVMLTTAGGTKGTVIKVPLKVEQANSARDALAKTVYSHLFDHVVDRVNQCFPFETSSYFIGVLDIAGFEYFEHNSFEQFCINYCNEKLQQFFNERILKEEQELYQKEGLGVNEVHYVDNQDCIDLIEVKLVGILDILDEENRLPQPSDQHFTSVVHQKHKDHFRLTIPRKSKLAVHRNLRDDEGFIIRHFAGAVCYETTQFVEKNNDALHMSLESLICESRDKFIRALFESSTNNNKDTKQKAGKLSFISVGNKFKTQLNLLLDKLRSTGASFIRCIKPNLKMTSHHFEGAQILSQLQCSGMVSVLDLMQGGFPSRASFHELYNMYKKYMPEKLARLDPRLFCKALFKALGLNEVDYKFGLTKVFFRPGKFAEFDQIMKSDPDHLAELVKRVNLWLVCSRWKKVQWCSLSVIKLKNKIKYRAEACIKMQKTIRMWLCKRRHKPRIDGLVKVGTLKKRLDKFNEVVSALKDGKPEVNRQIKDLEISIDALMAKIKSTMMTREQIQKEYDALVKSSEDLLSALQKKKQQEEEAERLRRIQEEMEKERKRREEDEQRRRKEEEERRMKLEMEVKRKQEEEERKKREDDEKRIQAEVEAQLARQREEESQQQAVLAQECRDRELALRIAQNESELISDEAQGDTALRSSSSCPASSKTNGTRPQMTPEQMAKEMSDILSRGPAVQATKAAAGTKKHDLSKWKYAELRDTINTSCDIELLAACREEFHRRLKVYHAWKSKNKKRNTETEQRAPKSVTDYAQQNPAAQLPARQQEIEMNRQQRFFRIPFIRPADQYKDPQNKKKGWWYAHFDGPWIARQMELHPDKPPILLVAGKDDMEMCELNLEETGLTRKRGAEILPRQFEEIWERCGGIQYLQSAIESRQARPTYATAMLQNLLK
UniProt Q96CV9: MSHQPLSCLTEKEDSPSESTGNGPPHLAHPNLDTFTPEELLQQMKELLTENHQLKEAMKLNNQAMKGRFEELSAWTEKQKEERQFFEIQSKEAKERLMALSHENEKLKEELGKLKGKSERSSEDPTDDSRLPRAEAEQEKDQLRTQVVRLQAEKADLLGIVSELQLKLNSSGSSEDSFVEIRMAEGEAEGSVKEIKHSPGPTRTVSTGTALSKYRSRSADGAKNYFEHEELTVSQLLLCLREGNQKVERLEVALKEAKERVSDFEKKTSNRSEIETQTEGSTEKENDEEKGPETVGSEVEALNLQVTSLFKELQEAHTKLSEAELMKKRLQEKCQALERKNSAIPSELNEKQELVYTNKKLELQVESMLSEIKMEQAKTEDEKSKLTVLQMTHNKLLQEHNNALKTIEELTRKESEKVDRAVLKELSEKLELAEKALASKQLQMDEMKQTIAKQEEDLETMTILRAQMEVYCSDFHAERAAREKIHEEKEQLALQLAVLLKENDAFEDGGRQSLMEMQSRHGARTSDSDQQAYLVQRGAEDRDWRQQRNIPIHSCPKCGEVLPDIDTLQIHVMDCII

Target: HA-Myosin VI (rat) (UniProt D4A5I9)
Assay: co-IP; COS cells co-transfected with Myosin VI HA and GFP-MVIBD or GFP alone; lysate in 150 mM NaCl, 1 mM EDTA, 10 mM Tris pH 8.0, 1% NP40; goat anti-HA beads overnight at 4°C; washes with 0.1% NP40; blots with anti-HA and anti-GFP

For “GFP-MVIBD (GFP fused to the Myosin VI binding domain: Optineurin 420-526 and DAB2 649-719 in tandem) (from UniProt Q96CV9 420-526; P98082 649-719)”, the binding was “binds”.
